Assay results published in publication PMC11628342.
Results are given in words; binding and its absence hold for the method and conditions named. In cells and extracts the contact can be indirect. Some binding calls cover weakened binding; strength is not graded here. For part of these data: Tags and fused reporters may be left off the sequences shown. Blank lines part the entries; values can stand above or below the binder they belong to.

Experiments:
[1] = target: T1, ribonucleotide reductase M2 (RRM2), FLAG-tagged (UniProt P31350); assay: co-IP; Myc- and FLAG-tagged plasmids co-transfected into HEK293T cells; immunoprecipitation with anti-FLAG antibody (beads at 4 °C overnight, washed 6 times with PBS); precipitates blotted with anti-Myc and anti-Flag antibodies
T1 sequence: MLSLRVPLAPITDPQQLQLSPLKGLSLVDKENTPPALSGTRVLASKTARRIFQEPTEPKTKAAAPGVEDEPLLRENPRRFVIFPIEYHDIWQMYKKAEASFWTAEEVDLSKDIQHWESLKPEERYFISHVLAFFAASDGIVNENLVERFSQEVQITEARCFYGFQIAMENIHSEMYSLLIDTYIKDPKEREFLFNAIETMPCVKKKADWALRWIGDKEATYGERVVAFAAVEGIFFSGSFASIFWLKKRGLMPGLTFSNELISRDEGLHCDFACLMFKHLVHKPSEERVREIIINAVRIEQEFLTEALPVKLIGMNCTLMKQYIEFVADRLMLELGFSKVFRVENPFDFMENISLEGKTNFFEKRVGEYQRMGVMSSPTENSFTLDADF

[2] = target: T2, inhibitor of nuclear factor kappa B kinase subunit epsilon (IKBKE), FLAG-tagged (UniProt Q14164); assay: as above
T2 sequence: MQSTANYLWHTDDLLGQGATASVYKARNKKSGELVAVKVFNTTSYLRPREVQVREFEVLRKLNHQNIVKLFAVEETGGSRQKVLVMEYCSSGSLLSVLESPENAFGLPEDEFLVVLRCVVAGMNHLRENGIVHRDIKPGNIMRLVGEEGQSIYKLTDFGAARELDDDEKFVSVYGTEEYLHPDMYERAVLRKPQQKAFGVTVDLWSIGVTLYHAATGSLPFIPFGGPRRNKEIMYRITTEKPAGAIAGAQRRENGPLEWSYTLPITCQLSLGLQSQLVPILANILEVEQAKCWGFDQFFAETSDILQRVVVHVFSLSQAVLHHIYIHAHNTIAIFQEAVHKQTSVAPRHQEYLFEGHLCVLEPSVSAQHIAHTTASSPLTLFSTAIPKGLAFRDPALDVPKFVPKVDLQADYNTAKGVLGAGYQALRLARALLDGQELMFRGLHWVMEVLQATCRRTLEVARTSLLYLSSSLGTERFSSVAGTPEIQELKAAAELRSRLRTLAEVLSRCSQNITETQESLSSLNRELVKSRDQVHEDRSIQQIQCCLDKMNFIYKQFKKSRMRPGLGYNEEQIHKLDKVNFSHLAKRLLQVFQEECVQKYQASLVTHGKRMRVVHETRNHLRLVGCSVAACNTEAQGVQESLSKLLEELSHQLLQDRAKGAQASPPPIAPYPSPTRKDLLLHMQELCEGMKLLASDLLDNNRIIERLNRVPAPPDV

[3] = target: T3, endogenous IKBKE (human (endogenous in 769-P and 786-O)) (UniProt Q14164); assay: co-IP; whole-cell lysates of 769-P and 786-O cells precipitated with IKBKE antibodies (protein A + G beads, 4 °C overnight); precipitates immunoblotted for the endogenous proteins
T3 sequence: T2 sequence

binding [1]: binds
B1: inhibitor of nuclear factor kappa B kinase subunit epsilon (IKBKE), Myc-tagged (protein, UniProt Q14164 1-716)
chain: T2 sequence

binding [2]: binds
B2: ribonucleotide reductase M2 (RRM2), Myc-tagged (protein, UniProt P31350 1-389)
chain: T1 sequence

binding [3]: binds
B3: endogenous RRM2 (protein, UniProt P31350 1-389)
chain: T1 sequence
